# Data as given in the supplement of paper PMC10849652.
# Protein sequences, listed by entry. Tags and fused reporters are not part of them. Lines headed by an entry give the natural chain unless they say otherwise; changes in a name come on top.
# UniProt Q9BV81: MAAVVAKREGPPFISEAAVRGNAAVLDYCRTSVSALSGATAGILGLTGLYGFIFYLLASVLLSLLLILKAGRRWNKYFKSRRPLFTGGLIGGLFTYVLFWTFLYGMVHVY
# UniProt Q9NR50: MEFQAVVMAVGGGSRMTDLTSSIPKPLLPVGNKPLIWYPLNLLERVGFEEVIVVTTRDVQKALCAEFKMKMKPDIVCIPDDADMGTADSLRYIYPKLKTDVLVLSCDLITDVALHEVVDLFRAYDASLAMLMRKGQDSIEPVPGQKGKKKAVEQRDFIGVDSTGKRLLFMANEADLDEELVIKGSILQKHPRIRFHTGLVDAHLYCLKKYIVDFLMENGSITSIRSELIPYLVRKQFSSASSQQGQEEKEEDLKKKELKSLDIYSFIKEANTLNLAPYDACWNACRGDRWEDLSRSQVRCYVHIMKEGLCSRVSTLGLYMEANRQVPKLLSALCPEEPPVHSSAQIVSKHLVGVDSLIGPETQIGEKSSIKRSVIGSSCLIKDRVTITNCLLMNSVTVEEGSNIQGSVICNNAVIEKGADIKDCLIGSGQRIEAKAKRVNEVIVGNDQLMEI
# UniProt Q9UI10, whole entry, looked up: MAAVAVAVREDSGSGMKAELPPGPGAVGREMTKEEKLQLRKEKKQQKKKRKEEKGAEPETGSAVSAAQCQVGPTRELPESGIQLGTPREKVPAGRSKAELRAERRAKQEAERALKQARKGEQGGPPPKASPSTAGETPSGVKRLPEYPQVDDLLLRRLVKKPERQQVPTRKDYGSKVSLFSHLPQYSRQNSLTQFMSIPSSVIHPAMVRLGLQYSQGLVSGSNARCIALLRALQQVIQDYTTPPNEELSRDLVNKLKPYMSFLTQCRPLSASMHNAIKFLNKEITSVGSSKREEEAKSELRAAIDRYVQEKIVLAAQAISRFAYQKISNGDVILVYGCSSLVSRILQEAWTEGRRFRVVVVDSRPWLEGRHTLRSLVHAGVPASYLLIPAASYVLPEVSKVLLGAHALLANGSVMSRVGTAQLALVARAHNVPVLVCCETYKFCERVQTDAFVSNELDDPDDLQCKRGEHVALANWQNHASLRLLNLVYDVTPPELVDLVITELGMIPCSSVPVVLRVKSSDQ
# UniProt P50402: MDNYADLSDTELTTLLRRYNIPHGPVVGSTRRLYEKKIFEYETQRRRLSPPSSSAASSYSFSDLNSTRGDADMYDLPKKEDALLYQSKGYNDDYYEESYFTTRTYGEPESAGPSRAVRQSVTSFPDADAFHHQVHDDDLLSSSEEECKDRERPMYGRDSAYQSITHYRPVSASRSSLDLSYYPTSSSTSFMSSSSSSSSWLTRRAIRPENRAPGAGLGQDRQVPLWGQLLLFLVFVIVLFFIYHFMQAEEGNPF
# UniProt P11171, whole entry, looked up: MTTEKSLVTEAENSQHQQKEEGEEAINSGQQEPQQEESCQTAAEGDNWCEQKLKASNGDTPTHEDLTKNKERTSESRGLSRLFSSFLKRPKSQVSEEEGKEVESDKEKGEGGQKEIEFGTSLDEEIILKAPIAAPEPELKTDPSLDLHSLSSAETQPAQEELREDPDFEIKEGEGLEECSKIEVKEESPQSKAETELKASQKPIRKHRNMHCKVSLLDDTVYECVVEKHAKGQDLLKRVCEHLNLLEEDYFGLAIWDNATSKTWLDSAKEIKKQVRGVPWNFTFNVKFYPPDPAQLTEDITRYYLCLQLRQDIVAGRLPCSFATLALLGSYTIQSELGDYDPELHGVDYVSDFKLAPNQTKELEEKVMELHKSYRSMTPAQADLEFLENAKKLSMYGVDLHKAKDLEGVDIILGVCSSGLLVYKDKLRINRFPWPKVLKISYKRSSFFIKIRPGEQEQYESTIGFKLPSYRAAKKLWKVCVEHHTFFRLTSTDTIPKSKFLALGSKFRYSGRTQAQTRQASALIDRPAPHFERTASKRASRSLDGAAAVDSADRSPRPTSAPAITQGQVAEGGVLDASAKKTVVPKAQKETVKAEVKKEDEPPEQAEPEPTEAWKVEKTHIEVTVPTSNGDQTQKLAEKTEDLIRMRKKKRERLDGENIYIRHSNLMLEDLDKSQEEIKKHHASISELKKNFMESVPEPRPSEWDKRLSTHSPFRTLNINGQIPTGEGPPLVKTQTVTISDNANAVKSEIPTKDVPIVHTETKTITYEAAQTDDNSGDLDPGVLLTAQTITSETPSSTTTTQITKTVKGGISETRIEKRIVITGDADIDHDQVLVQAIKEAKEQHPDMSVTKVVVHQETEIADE
# UniProt O43768: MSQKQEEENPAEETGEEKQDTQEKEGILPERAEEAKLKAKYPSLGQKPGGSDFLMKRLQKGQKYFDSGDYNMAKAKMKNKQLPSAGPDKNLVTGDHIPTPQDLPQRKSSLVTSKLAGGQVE
# UniProt Q9P2K8: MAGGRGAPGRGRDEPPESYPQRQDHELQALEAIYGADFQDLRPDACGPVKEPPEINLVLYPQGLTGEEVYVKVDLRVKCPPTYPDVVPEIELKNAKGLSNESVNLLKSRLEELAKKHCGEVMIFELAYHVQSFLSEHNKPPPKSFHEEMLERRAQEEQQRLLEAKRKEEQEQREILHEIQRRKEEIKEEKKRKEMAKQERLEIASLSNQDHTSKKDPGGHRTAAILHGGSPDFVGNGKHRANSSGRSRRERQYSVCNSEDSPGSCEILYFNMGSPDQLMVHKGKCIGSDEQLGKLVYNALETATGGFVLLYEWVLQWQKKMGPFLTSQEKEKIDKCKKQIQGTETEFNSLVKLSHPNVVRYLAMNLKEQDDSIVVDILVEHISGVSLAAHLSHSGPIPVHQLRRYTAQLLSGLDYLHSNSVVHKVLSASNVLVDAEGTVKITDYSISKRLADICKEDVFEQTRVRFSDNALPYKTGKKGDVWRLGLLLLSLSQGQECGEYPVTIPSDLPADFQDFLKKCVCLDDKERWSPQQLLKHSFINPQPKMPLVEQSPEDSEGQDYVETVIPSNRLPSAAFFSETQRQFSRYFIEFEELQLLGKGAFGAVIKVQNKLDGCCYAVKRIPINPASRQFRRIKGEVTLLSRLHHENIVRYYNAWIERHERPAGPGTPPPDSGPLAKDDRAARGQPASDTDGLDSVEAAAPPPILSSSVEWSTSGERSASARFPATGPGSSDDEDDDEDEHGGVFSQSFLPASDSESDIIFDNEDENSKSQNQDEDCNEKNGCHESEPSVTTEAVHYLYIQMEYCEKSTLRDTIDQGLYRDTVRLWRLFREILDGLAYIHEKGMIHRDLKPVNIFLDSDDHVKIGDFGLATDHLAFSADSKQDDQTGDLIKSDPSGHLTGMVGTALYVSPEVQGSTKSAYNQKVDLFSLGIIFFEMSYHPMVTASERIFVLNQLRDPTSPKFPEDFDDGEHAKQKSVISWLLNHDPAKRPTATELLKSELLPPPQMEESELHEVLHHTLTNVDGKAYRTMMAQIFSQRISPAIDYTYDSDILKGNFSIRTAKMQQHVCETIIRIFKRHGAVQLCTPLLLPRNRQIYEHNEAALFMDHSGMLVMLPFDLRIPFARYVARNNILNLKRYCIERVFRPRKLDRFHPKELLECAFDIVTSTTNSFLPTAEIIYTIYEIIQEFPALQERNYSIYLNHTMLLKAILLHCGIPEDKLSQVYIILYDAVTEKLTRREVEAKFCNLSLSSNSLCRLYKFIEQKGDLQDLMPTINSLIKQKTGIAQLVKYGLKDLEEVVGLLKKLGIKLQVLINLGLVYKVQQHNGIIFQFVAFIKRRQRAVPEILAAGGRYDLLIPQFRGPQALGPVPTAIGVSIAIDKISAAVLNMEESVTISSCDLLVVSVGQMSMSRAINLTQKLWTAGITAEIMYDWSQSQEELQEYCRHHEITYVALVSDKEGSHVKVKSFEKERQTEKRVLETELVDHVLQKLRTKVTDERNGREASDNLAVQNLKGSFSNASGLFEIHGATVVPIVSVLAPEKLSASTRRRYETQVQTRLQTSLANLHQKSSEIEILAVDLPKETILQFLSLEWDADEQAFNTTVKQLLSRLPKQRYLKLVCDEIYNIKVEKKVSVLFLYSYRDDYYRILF
# UniProt Q96EB1: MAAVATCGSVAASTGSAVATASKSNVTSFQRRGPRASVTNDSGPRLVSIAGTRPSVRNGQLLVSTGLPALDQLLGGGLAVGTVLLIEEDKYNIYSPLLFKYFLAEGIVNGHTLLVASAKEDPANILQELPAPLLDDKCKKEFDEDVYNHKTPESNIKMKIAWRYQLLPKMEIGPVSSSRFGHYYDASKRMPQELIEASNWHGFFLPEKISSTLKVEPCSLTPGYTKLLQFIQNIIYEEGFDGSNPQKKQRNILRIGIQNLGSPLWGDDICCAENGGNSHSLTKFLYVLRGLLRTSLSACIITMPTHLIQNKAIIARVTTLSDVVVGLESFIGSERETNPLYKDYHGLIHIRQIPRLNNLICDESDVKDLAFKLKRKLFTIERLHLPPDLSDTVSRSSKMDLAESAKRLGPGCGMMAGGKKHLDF
# UniProt O75356: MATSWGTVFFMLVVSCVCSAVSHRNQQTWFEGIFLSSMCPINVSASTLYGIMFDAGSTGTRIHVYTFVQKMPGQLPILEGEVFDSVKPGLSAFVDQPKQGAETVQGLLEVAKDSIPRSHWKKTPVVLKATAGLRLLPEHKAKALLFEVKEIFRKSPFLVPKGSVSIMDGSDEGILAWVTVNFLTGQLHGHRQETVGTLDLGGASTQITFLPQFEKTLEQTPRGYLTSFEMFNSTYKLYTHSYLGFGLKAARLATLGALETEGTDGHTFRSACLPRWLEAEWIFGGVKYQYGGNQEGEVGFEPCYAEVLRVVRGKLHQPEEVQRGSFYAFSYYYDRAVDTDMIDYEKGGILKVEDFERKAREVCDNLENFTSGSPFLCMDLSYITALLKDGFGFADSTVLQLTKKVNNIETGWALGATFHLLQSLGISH
# UniProt Q15369, whole entry, looked up: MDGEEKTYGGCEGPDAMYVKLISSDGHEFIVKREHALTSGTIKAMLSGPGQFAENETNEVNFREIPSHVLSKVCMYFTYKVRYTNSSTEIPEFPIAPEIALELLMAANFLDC
# UniProt P63241: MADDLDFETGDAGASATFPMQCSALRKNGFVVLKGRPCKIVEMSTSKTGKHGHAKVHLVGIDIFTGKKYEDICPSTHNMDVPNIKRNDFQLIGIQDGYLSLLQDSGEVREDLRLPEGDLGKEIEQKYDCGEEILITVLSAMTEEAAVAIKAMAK
# UniProt P05198, whole entry, looked up: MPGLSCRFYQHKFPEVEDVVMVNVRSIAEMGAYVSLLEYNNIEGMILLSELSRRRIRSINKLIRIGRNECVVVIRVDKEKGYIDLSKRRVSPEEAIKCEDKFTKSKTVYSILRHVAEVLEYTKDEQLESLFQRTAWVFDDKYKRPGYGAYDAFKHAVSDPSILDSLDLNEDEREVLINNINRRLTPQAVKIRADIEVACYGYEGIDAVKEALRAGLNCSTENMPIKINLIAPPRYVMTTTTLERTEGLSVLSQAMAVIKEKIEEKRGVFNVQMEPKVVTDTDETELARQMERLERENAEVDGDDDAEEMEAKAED
# UniProt Q9BQI3, whole entry, looked up: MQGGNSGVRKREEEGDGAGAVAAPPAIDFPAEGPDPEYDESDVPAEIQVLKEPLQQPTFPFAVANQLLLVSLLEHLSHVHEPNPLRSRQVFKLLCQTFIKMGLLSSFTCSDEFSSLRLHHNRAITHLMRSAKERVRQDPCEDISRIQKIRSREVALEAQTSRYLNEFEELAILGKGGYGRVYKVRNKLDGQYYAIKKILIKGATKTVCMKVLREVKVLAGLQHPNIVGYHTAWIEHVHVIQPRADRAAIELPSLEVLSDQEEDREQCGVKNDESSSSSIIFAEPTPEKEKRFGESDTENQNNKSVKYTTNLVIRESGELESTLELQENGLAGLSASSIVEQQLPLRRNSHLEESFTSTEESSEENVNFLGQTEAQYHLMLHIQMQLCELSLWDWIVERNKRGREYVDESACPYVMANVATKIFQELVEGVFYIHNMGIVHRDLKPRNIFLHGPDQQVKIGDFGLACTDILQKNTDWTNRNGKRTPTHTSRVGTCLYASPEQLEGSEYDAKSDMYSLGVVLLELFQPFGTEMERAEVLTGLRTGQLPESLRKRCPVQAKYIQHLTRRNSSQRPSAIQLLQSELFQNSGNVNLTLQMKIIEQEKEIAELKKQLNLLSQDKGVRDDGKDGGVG
# UniProt Q9P0I2: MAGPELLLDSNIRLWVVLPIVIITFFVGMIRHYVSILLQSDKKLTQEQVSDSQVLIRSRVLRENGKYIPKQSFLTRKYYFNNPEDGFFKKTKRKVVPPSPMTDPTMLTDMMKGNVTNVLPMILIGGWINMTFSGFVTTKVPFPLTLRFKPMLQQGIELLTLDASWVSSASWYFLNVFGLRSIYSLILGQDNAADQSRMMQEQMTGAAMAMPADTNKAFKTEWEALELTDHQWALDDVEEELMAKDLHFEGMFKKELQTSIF
# This is one part of the list.
# How the values were obtained:
# Test in all cases: log2 fold change, soluble protein after heating vs DMSO (PISA); higher = thermal stabilisation; K562 cells, 10 uM, 30 min; active = over 0.2 and 3.5 SD of the protein, either way, in both replicates (recomputed)
# [1] = compound: CS(=O)(=O)c1ccc(-c2cnc(N)c(C(=O)Nc3ccccc3)n2)cc1
# Summary of the method: (§1)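 Values are thermal stability changes relative to control samples and are taken from duplicates. They are stated as log2 fold changes. Before quantification by TMTpro 16plex LC-MS/MS with equalised channel sums, K562 cells at 2×10^6 cells/mL were treated with 10 μM compound for 30 min, heated in aliquots for 3 min across 48°C-58°C, pooled, extracted in PBS with 0.5% NP-40 at 4°C, and centrifuged at 21,000xg for 90 min to give the soluble supernatant.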
# crizotinib = compound: C[C@@H](Oc1cc(-c2cnn(C3CCNCC3)c2)cnc1N)c1c(Cl)ccc(F)c1Cl [crizotinib]
# Summary of the method: as §1
# [2] = compound: C[C@@H]1COCCN1C2=NC(=NC(=C2)C3(CC3)S(=O)(=O)C)C4=C5C=CNC5=CC=C4
# Summary of the method: as §1
# [3] = compound: C[C@H](C1=CC=C(C=C1)C(=O)NC2=C3C=CNC3=NC=C2)N
# Summary of the method: as §1
# duvelisib = compound: C[C@H](Nc1ncnc2nc[nH]c12)c1cc2cccc(Cl)c2c(=O)n1-c1ccccc1 [duvelisib]
# Summary of the method: as §1
# gandotinib = compound: Cc1cc(Nc2cc(CN3CCOCC3)c3nc(C)c(Cc4ccc(Cl)cc4F)n3n2)n[nH]1 [gandotinib]
# Summary of the method: as §1
# tozasertib = compound: Cc1cc(Nc2cc(N3CCN(C)CC3)nc(Sc3ccc(NC(=O)C4CC4)cc3)n2)n[nH]1 [tozasertib]
# Summary of the method: as §1
# [4] = compound: Cc1cc(SCc2sc(-c3ccc(C(F)(F)F)cc3)nc2C)ccc1OCC(=O)O
# Summary of the method: as §1
# doramapimod = compound: Cc1ccc(-n2nc(C(C)(C)C)cc2NC(=O)Nc2ccc(OCCN3CCOCC3)c3ccccc23)cc1 [doramapimod]
# Summary of the method: as §1
# ispinesib = compound: Cc1ccc(C(=O)N(CCCN)[C@@H](c2nc3cc(Cl)ccc3c(=O)n2Cc2ccccc2)C(C)C)cc1 [ispinesib]
# Summary of the method: as §1
Target,log2 fold change [1],log2 fold change (crizotinib),log2 fold change [2],log2 fold change [3],log2 fold change (duvelisib),log2 fold change (gandotinib),log2 fold change (tozasertib),log2 fold change [4],log2 fold change (doramapimod),log2 fold change (ispinesib)
EMC6 (UniProt Q9BV81),inactive: -0.005,inactive: 0.051,inactive: -0.008,inactive: -0.09,inactive: 0.033,inactive: -0.207,inactive: 0.116,inactive: 0.033,inactive: -0.19,inactive: 0.059
EIF2B2 (UniProt P49770),inactive: 0.004,inactive: 0.024,inactive: -0.044,inactive: 0.012,inactive: -0.001,inactive: -0.018,inactive: 0.053,inactive: 0.008,inactive: 0.004,inactive: 0.014
EIF2B3 (UniProt Q9NR50),inactive: 0.032,inactive: -0.036,inactive: -0.073,inactive: 0.012,inactive: -0.037,inactive: -0.005,inactive: 0.04,inactive: 0.066,inactive: 0.018,inactive: -0.013
EIF2B4 isoform 2 (UniProt Q9UI10),inactive: 0.031,inactive: -0.036,inactive: -0.06,inactive: 0.091,inactive: -0.017,inactive: 0.006,inactive: -0.024,inactive: 0.034,inactive: 0.062,inactive: -0.013
EMD (UniProt P50402),inactive: 0.042,active: -0.215,inactive: 0.019,inactive: 0.018,,inactive: -0.047,,inactive: 0.015,inactive: 0.018,inactive: -0.092
EPB41 (UniProt P11171),inactive: 0.035,inactive: -0.01,inactive: 0.036,inactive: -0.063,inactive: -0.028,inactive: -0.028,inactive: -0.025,inactive: 0.008,inactive: -0.019,inactive: -0.014
ENSA isoform 3 (UniProt O43768),inactive: 0.024,inactive: -0.004,inactive: 0.012,inactive: -0.097,inactive: 0.011,inactive: -0.035,inactive: -0.02,inactive: -0.062,inactive: 0.001,inactive: 0
EEF1A1P5 (UniProt Q5VTE0),inactive: 0.036,inactive: -0.1,inactive: 0.018,inactive: -0.016,inactive: 0.007,inactive: -0.047,inactive: -0.068,inactive: -0.011,inactive: -0.006,inactive: -0.004
ENDOD1 (UniProt O94919),inactive: 0.009,inactive: 0.09,inactive: -0.04,inactive: -0.003,inactive: 0.036,inactive: 0.052,inactive: -0.043,inactive: -0.065,inactive: -0.03,inactive: -0.009
EMP3 (UniProt P54852),inactive: 0.13,inactive: 0.102,inactive: 0.071,inactive: -0.168,inactive: 0.066,,inactive: -0.049,inactive: -0.02,inactive: -0.031,inactive: -0.014
EIF2AK4 (UniProt Q9P2K8),inactive: -0.071,inactive: 0.017,inactive: 0.02,inactive: 0.128,inactive: 0.003,inactive: -0.026,inactive: 0.081,inactive: 0.055,inactive: 0.077,inactive: -0.249
EIF4H (UniProt Q15056),inactive: -0.002,inactive: -0.04,inactive: 0.008,inactive: -0.095,inactive: -0.02,inactive: -0.035,inactive: -0.025,inactive: -0.009,inactive: 0,inactive: -0.032
ELP4 isoform 3 (UniProt Q96EB1),inactive: -0.002,inactive: 0.041,inactive: -0.018,inactive: -0.064,inactive: 0.003,inactive: 0.04,inactive: -0.028,inactive: -0.032,inactive: -0.003,inactive: 0.029
EEF1G isoform 2 (UniProt P26641),inactive: 0.011,inactive: 0.015,inactive: -0.028,inactive: 0.006,,inactive: -0.061,,inactive: 0.061,inactive: -0.013,inactive: 0.061
EGLN1 (UniProt Q9GZT9),inactive: 0.01,inactive: -0.029,inactive: -0.064,inactive: -0.035,,inactive: -0.036,,inactive: 0,inactive: -0.014,inactive: -0.04
ENTPD5 (UniProt O75356),inactive: -0.042,inactive: -0.018,inactive: 0.041,inactive: -0.061,inactive: 0.022,,inactive: 0.143,inactive: -0.009,inactive: 0.041,inactive: 0.054

Target,log2 fold change [1],log2 fold change (crizotinib),log2 fold change [2],log2 fold change [3],log2 fold change (duvelisib),log2 fold change (gandotinib),log2 fold change (tozasertib),log2 fold change [4],log2 fold change (doramapimod),log2 fold change (ispinesib)
EIF4G1 isoform 8 (UniProt Q04637),inactive: -0.21,inactive: -0.314,inactive: -0.206,inactive: 0.109,,inactive: -0.032,,inactive: 0.149,inactive: 0.032,inactive: -0.324
ELAVL1 isoform 2 (UniProt Q15717),inactive: -0.065,inactive: -0.052,inactive: -0.253,inactive: 0.373,inactive: -0.07,inactive: 0.082,inactive: 0.082,inactive: 0.061,inactive: 0.016,inactive: -0.067
ELOC (UniProt Q15369),inactive: 0.038,inactive: 0.074,active: 0.279,inactive: -0.07,,inactive: -0.001,,inactive: -0.015,inactive: 0.012,inactive: 0.134
EIF5A isoform 2 (UniProt P63241),inactive: -0.007,inactive: -0.039,inactive: 0.091,inactive: -0.102,inactive: 0.009,inactive: -0.062,inactive: 0.084,inactive: 0.111,inactive: -0.009,inactive: 0.021
EIF2S1 (UniProt P05198),inactive: -0.023,inactive: -0.013,inactive: -0.115,inactive: 0.105,inactive: -0.007,inactive: 0.067,inactive: -0.029,inactive: 0.013,inactive: 0.048,inactive: -0.101
EIF3G (UniProt K7ER90),inactive: 0.054,inactive: 0.02,inactive: 0.08,inactive: -0.124,inactive: 0.043,,inactive: -0.17,inactive: 0.026,inactive: -0.007,
EIF2AK1 (UniProt Q9BQI3),inactive: 0.023,inactive: 0.015,inactive: 0.015,inactive: 0.045,,inactive: 0.137,,inactive: 0.053,inactive: 0.068,inactive: -0.024
EMC3 (UniProt Q9P0I2),inactive: 0.032,inactive: 0.012,inactive: 0.102,inactive: -0.084,inactive: 0.057,inactive: -0.251,inactive: -0.015,inactive: -0.037,inactive: -0.02,inactive: 0.002
EP300 (UniProt Q09472),inactive: -0.074,inactive: -0.007,inactive: 0.08,inactive: -0.069,inactive: 0.049,inactive: 0.005,inactive: -0.018,inactive: 0.016,inactive: -0.024,inactive: 0.141
ELP4 (UniProt Q96EB1),inactive: 0.029,inactive: 0.05,inactive: 0.02,inactive: -0.031,inactive: 0.026,inactive: 0.056,inactive: -0.024,inactive: -0.096,inactive: 0.174,inactive: -0.046
ENO1 isoform 2 (UniProt P06733),inactive: 0.122,inactive: 0.012,inactive: -0.005,inactive: -0.035,inactive: 0.142,inactive: 0.372,inactive: -0.194,inactive: -0.083,inactive: 0.043,inactive: 0.006
EIF3D (UniProt O15371),inactive: -0.021,inactive: -0.165,inactive: -0.07,inactive: 0.316,inactive: -0.091,inactive: 0.012,inactive: 0.06,inactive: 0.155,inactive: 0.116,inactive: -0.17
EFNB1 (UniProt P98172),inactive: -0.152,inactive: -0.034,inactive: 0.165,inactive: -0.146,inactive: -0.003,inactive: -0.178,inactive: -0.058,inactive: -0.042,inactive: 0.186,inactive: 0.064
EHMT1 (UniProt Q9H9B1),inactive: -0.108,inactive: -0.023,inactive: -0.017,inactive: 0.172,inactive: -0.032,inactive: 0.21,inactive: 0.07,inactive: 0.062,inactive: 0.026,inactive: -0.118
EIF3B isoform 2 (UniProt P55884),inactive: -0.017,inactive: -0.1,inactive: -0.078,inactive: 0.181,inactive: -0.042,inactive: 0.03,inactive: 0.089,inactive: 0.109,inactive: 0.074,inactive: -0.164

# Exported with bars between the fields: part of the list above
Target | log2 fold change [1] | log2 fold change (crizotinib) | log2 fold change [2] | log2 fold change [3] | log2 fold change (duvelisib) | log2 fold change (gandotinib) | log2 fold change (tozasertib) | log2 fold change [4] | log2 fold change (doramapimod) | log2 fold change (ispinesib)
EP300 (UniProt Q09472) | inactive: -0.074 | inactive: -0.007 | inactive: 0.08 | inactive: -0.069 | inactive: 0.049 | inactive: 0.005 | inactive: -0.018 | inactive: 0.016 | inactive: -0.024 | inactive: 0.141
ELP4 (UniProt Q96EB1) | inactive: 0.029 | inactive: 0.05 | inactive: 0.02 | inactive: -0.031 | inactive: 0.026 | inactive: 0.056 | inactive: -0.024 | inactive: -0.096 | inactive: 0.174 | inactive: -0.046
